Measured values as given in publication PMC12500436.
These are yes or no findings as the source states them, for the method shown. In cells and extracts the contact can be indirect. Some entries that bind do so weakly or less than the wild type.

Protein sequences, listed by entry. Tags and fused reporters are not part of them.
UniProt P67871: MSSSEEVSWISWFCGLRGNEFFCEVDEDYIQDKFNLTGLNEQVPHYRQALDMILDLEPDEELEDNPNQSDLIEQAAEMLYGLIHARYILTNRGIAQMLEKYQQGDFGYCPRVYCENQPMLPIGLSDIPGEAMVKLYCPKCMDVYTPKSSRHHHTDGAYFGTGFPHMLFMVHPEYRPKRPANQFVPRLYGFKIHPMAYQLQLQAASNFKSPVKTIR

Biological target: T1, T-cell immunoglobulin and mucin domain containing 4 (Tim-4), endogenous in mouse peritoneal macrophages (mouse (endogenous in PEMs)) (UniProt Q6U7R4)
T1 sequence: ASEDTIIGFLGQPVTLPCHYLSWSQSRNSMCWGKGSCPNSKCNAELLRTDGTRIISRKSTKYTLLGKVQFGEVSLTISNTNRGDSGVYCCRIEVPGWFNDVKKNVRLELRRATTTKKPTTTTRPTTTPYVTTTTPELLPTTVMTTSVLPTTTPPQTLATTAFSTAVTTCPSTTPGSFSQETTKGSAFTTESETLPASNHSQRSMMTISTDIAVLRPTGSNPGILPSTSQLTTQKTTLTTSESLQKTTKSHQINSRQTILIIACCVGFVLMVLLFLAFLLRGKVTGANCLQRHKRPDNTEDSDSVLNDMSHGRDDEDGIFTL
Test: co-IP; endogenous proteins in PEM lysate; IP with anti-Tim-4 (sc-390805) or IgG; immunoblot with anti-Tim-4 and anti-CK2β

## casein kinase 2β (CK2β) regulatory subunit, endogenous in mouse peritoneal macrophages (from UniProt P67871 1-215)
  binding: binds
